Reference: patent publication US20210087159A1, “TETRAHYDROCANNABINOLIC- CA[…] DERIVATIVES AND USES THEREOF” (AL&AM […]., priority 2018, published 2021)

Assays:
Assay in all cases: CellTiter-Glo cell viability assay, cancer cell cytotoxicity/anti-proliferation panel (Chempartner)
Format in all cases: cell-based
U251, brain human glioma = settings: compounds 10 μM starting, STS 2 μM starting
A549, lung carcinoma = settings: 72 hours, compounds 10 μM starting, STS 2 μM starting
Protocol: (§1) In this study, the biological activity of certain compounds of the present invention on cancer cell cytotoxicity/anti-proliferation panel was tested using the CellTiter-Glo® cell viability assay. The compounds were dissolved in DMSO to make 10 mM solution.
(§2) The cell lines tested were all selected from the Chempartner's cell collection and included: Caco-2 ATCC colon adenocarcinoma; TE-6 RIKEN esophagus, carcinoma; PC-3 ATCC prostate adenocarcinoma; T47D, breast ductal carcinoma; U251, brain human glioma; A549, lung carcinoma; OMP-2, multiple myeloma; SK-HEP-1, liver adenocarcinoma; PANC-1, pancreas ductal carcinoma; AsPC-1, pancreas, ductal carcinoma; and U-87 MG, brain glioblastoma.
(§3) For the assays described herein, absolute inhibition of cells growth (%) and absolute IC50 (Abs IC50; […]) were used to derive a value that can be used to compare results within and across runs in the same assay, as well as between different assays.
(§4) • a. Prepare complete medium: Add FBS and appropriate additives according to the information sheet provided by the vendor. Mix gently. • b. Check the cell name and complete medium and passage number marked on the flask. For adherent cell lines, refer to c to k. For suspension cell lines, refer to g to k. • c. Remove and discard culture medium using a vacuum pump. • d. Briefly rinse the cell layer with 0.25% (w/v) trypsin-0.038% (w/v) EDTA solution to remove all traces of serum that contains trypsin inhibitor. • e. Add 3.0 ml of trypsin-EDTA solution to flask and observe cells under an inverted microscope until cell layer is dispersed. • f. Add 8.0 ml of complete growth medium and aspirate cells by gently pipetting. • g. Transfer the cell suspension to a centrifuge tube and centrifuge at 800-1000 rpm for 3-5 minutes. • h. Discard the supernatant using a vacuum pump. • i. Add appropriate volume of complete medium. Suspend the cell pellet by gently pipetting. • j. Count the cell numbers with Vi-cell XR and adjust cells to appropriate density. • k. Add 100 μL of cell suspension to 96-well opaque-walled clear bottom plates according to the planned plate layout and place the plates in the CO2 incubator overnight. • l. Plate layout:
(§5) • Plate preparation of testing articles. 10 mM stock solution of each one of the compounds (provided as powder) was prepared in DMSO. […] 0.5 μL of each of the diluted compounds was transferred to the wells containing 100 μL of the culture medium. The total dilution was 200 fold. Cells were incubated with the compounds for 72 hours at 5% CO2, 37° C.
(§6) • Thaw the CellTiter-Glo buffer and equilibrate to room temperature prior to use. • Equilibrate the lyophilized CellTiter-Glo substrate to room temperature prior to use. • Transfer the appropriate volume of CellTiter-Glo buffer into the amber bottle containing CellTiter-Glo substrate to reconstitute the lyophilized enzyme/substrate mixture. This forms the CellTiter-Glo reagent. • Mix by gently vortexing, swirling or by inverting the contents to obtain a homogeneous solution. The CellTiter-Glo substrate should go into solution easily in less than one minute.

[1] = test system: TE-6 RIKEN esophagus, carcinoma; settings: 72 hours, compounds 10 μM starting, STS 2 μM starting
Protocol: as §1, §2, §3, §4, §5, §6

[2] = test system: T47D, breast ductal carcinoma; settings: 72 hours, compounds 10 μM starting, STS 2 μM starting
Protocol: as §1, §2, §3, §4, §5, §6

[3] = test system: PC-3 ATCC prostate adenocarcinoma; settings: 72 hours, compounds 10 μM starting, STS 2 μM starting
Protocol: as §1, §2, §3, §4, §5, §6

[4] = test system: AsPC-1, pancreas, ductal carcinoma; settings: compounds 10 μM starting, STS 2 μM starting
Protocol: as §1, §2, §3, §4, §5, §6

OMP-2, multiple myeloma = settings: 72 hours, compounds 10 μM starting, STS 2 μM starting
Protocol: as §1, §2, §3, §4, §5, §6

[5] = test system: Caco-2 ATCC colon adenocarcinoma; settings: 72 hours, compounds 10 μM starting, STS 2 μM starting
Protocol: as §1, §2, §3, §4, §5, §6

[6] = test system: U-87 MG, brain glioblastoma; settings: 72 hours, compounds 10 μM starting, STS 2 μM starting, 10-pt, 3-fold dilution
Protocol: as §1, §2, §3, §4, §5, §6

[7] = test system: SK-HEP-1, liver adenocarcinoma; settings: 72 hours, compounds 10 μM starting, STS 2 μM starting, 10-pt, 3-fold dilution
Protocol: as §1, §2, §3, §4, §5, §6

[8] = test system: PANC-1, pancreas ductal carcinoma; settings: 72 hours, compounds 10 μM starting, STS 2 μM starting, 10-pt, 3-fold dilution
Protocol: as §1, §2, §3, §4, §5, §6

[9] = 72 hours, 10-pt, 3-fold dilution
[10] = Homo sapiens, read-out: IC50 (absolute IC50)

CN[C@@H]1C[C@H]2O[C@@](C)([C@@H]1OC)n1c3ccccc3c3c4c(c5c6ccccc6n2c5c31)C(=O)NC4 [STS, Staurosporine, reference compound]
Inhibition (U251, brain human glioma; [9]): 95.87% | IC50 (U251, brain human glioma; Homo sapiens, U-251, 72 hours, read-out: IC50 (absolute IC50)): 10 nM | Inhibition (A549, lung carcinoma; 10-pt, 3-fold dilution): 93.20% | IC50 (A549, lung carcinoma; [10]): 10 nM | Inhibition ([1]; 10-pt, 3-fold dilution): 100% | IC50 ([1]; read-out: IC50 (absolute IC50)): 10 nM | Inhibition ([2]; 10-pt, 3-fold dilution): 83.46% | IC50 [2, 10]: 220 nM | Inhibition ([3]; 10-pt, 3-fold dilution): 78.98% | IC50 ([3]; read-out: IC50 (absolute IC50)): 20 nM | Inhibition [4, 9]: 88.40% | IC50 ([4]; Homo sapiens, ASPC1, 72 hours, read-out: IC50 (absolute IC50)): 42 nM | Inhibition (OMP-2, multiple myeloma; 10-pt, 3-fold dilution): 100% | IC50 (OMP-2, multiple myeloma; read-out: IC50 (absolute IC50)): 10 nM | Inhibition ([5]; 10-pt, 3-fold dilution): 91.56% | IC50 [5, 10]: 10 nM | Inhibition [6]: 94.92% | Inhibition [7]: 100% | Inhibition [8]: 99.83%
